These are yes or no findings as the source states them, for the method shown. Binding seen in cells or lysates may run through a third protein. A yes stands for co-enrichment or nearness to the bait. Other partners may have been found.
Target: enhancer of zeste homologue 2 (EZH2) (human (endogenous in U87-MG)) (UniProt Q15910)
Experiment: affinity purification with mass spectrometry; anti-EZH2 co-IP from lysates of U87-MG cells overexpressing PRADX or scramble; SDS-PAGE, Coomassie staining; the band that was brighter with PRADX overexpression analysed by MS

By UniProt entry, the sequences of proteins in these tests, tags left out.
UniProt Q15910: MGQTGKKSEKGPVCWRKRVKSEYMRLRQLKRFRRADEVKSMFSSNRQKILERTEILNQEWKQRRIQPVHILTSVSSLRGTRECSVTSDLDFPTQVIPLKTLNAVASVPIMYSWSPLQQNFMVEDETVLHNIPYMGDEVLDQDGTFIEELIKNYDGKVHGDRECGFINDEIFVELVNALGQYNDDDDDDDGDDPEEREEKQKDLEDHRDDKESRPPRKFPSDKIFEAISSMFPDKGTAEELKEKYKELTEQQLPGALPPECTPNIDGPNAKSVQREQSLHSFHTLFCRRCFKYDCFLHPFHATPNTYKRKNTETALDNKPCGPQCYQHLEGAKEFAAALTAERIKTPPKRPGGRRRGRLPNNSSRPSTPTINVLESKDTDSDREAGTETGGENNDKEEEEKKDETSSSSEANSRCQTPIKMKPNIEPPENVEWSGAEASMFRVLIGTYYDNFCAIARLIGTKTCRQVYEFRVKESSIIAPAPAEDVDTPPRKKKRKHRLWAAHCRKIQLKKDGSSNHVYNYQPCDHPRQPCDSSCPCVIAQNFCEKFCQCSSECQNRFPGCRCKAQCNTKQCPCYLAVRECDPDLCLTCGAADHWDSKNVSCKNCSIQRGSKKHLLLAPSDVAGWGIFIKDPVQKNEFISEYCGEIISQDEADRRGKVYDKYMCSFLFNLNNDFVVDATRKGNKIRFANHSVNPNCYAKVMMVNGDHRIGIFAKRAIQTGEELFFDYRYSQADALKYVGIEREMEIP
UniProt P17844: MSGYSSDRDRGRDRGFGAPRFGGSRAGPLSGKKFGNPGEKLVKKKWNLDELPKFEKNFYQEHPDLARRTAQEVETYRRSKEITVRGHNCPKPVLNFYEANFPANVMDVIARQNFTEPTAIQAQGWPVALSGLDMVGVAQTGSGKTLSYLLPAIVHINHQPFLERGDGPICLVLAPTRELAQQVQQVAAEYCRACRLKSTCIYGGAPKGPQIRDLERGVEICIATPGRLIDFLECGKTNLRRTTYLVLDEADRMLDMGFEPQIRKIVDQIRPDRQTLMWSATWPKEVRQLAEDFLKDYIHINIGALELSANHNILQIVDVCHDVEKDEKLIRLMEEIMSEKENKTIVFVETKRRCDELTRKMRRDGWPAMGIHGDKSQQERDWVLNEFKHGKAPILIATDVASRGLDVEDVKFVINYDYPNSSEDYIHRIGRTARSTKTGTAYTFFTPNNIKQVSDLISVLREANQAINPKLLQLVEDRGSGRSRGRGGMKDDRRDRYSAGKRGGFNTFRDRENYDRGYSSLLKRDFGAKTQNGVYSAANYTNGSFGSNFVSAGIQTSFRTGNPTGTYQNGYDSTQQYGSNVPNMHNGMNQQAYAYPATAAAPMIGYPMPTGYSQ

binding: binds
Substance: DEAD box protein 5 (DDX5) (from UniProt P17844 1-614)

— PMC7977445
